Measurements: paper PMC7862700
This is a selection; strong and weak results do not stand in their true shares. At the low end of the ranking, values are background and their order means little.

The chains behind the UniProt entries cited, without tags or fusion partners. Where a name states a change or a piece, a line headed by the entry shows the natural chain unless it says otherwise.
UniProt O43186: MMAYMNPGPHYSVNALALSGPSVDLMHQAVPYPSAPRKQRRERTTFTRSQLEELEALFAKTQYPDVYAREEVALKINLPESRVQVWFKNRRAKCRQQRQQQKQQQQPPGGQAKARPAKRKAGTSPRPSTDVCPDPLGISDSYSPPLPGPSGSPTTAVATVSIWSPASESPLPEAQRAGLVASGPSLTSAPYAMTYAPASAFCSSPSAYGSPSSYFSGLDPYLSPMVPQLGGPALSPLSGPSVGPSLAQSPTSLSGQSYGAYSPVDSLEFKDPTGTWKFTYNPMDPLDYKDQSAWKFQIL

biological target: T1, FEV (UniProt Q99581); test: DAPPL (digital affinity profiling via proximity ligation, sequencing); settings: 10 mM Tris-HCl pH 7.5, 50 mM NaCl, 1 mM DTT, 4% glycerol, room temperature, 30 min; GST-TFs on glutathione beads, 16-mer random dsDNA library, 0.1% …; high values mean tight binding; double strand, one strand shown; scale: fold enrichment (6-mer frequency, TF over GST control)
T1 sequence: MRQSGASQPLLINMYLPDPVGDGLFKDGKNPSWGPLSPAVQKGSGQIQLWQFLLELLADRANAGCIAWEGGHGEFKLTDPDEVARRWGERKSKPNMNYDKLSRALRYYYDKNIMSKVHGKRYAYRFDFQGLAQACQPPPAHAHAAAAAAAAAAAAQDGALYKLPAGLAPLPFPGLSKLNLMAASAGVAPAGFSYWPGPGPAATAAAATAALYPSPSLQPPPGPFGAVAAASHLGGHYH

Row | Sequence | binding signal
1 | GAGGGT | 0.528
2 | GGCGCC | 0.68
3 | ACGTCG | 0.641
4 | CGTAGA | 0.698
5 | GAGTGG | 0.583
6 | GAGTTC | 0.689
7 | GGGGTT | 0.842
8 | GGGGAG | 0.379
9 | GTCGGA | 0.17
10 | CGCCGT | 0.937
11 | ACGCAT | 0.818
12 | ACGCAA | 0.924
13 | ATCGGC | 0.652
14 | GACGCG | 0.596
15 | AGAGGG | 0.707
16 | GCTTGA | 0.85
17 | GTCGCT | 0.758
18 | GAGTAT | 0.575
19 | AAGACG | 0.748

Row | Sequence | binding signal
20 | AGCCAG | 0.472
21 | TGGAGC | 0.625
22 | GGTCAT | 0.845
23 | ACCCAG | 0.687
24 | GTCGTG | 0.388
25 | TCAGTG | 0.765
26 | GGGTCT | 0.907
27 | GAGAGT | 0.338
28 | GGCGAC | 0.895
29 | CCGGAG | 0.562
30 | ACGCAG | 0.78
31 | GACGGG | 0.445
32 | CAGTCT | 0.713
33 | ACCAGC | 0.828
34 | TAAGTG | 0.763
35 | CAGAGT | 0.609
36 | TGACGT | 0.902
37 | GGTGCA | 0.84
38 | GGTACG | 0.846

biological target: CRX (UniProt O43186); test: as above; settings: 10 mM Tris-HCl pH 7.5, 50 mM NaCl, 1 mM DTT, 4% glycerol, room temperature, 30 min; GST-TFs on glutathione beads, 16-mer random dsDNA library, 0.1% …; high values mean tight binding; double strand, one strand shown; scale: fold enrichment (6-mer frequency, TF over GST control)

Row | Sequence | binding signal
39 | GAGGGT | 0.462
40 | GGCGCC | 0.484
41 | ACGTCG | 0.519
42 | CGTAGA | 0.674
43 | GAGTGG | 0.518
44 | GAGTTC | 0.513
45 | GGGGTT | 0.795
46 | GGGGAG | 0.307
47 | GTCGGA | 0.148
48 | CGCCGT | 0.713
49 | ACGCAT | 0.726
50 | ACGCAA | 0.804
51 | ATCGGC | 0.805
52 | GACGCG | 0.444
53 | AGAGGG | 0.694
54 | GCTTGA | 0.921
55 | GTCGCT | 0.551
56 | GAGTAT | 0.644
57 | AAGACG | 0.868

Row | Sequence | binding signal
58 | AGCCAG | 0.472
59 | TGGAGC | 0.561
60 | GGTCAT | 0.648
61 | ACCCAG | 0.642
62 | GTCGTG | 0.278
63 | TCAGTG | 0.813
64 | GGGTCT | 0.83
65 | GAGAGT | 0.312
66 | GGCGAC | 0.668
67 | CCGGAG | 0.392
68 | ACGCAG | 0.647
69 | GACGGG | 0.339
70 | CAGTCT | 0.682
71 | ACCAGC | 0.754
72 | TAAGTG | 1.14
73 | CAGAGT | 0.512
74 | TGACGT | 0.768
75 | GGTGCA | 0.647
76 | GGTACG | 0.596

biological target: T2, ELF5 (UniProt Q9UKW6-2); test: as above; settings: 10 mM Tris-HCl pH 7.5, 50 mM NaCl, 1 mM DTT, 4% glycerol, room temperature, 30 min; GST-TFs on glutathione beads, 16-mer random dsDNA library, 0.1% …; high values mean tight binding; double strand, one strand shown; scale: fold enrichment (6-mer frequency, TF over GST control)
T2 sequence: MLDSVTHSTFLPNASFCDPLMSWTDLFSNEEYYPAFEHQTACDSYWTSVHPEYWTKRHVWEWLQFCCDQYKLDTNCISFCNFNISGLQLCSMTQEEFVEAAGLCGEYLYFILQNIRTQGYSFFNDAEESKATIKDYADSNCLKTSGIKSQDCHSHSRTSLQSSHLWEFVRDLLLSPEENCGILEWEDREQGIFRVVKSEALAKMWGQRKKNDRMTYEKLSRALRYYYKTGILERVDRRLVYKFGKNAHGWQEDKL

Row | Sequence | binding signal
77 | GAGGGT | 0.502
78 | GGCGCC | 0.654
79 | ACGTCG | 0.666
80 | CGTAGA | 0.69
81 | GAGTGG | 0.582
82 | GAGTTC | 0.72
83 | GGGGTT | 0.823
84 | GGGGAG | 0.385
85 | GTCGGA | 0.181
86 | CGCCGT | 0.901
87 | ACGCAT | 0.801
88 | ACGCAA | 0.823
89 | ATCGGC | 0.609
90 | GACGCG | 0.6
91 | AGAGGG | 0.744
92 | GCTTGA | 0.864
93 | GTCGCT | 0.784
94 | GAGTAT | 0.569
95 | AAGACG | 0.789

Row | Sequence | binding signal
96 | AGCCAG | 0.439
97 | TGGAGC | 0.621
98 | GGTCAT | 0.794
99 | ACCCAG | 0.693
100 | GTCGTG | 0.398
101 | TCAGTG | 0.681
102 | GGGTCT | 0.884
103 | GAGAGT | 0.344
104 | GGCGAC | 0.824
105 | CCGGAG | 0.508
106 | ACGCAG | 0.767
107 | GACGGG | 0.459
108 | CAGTCT | 0.687
109 | ACCAGC | 0.794
110 | TAAGTG | 0.75
111 | CAGAGT | 0.605
112 | TGACGT | 0.917
113 | GGTGCA | 0.848
114 | GGTACG | 0.846
